Data taken from ChEMBL document CHEMBL3988442, “University of Dundee, Small-Polar-MMV Screening Library” (2021).

Sequences of proteins named here, by UniProt entry; tags and fusion partners are left off. Residues count along the entry.
UniProt Q8IDJ8, 1-583: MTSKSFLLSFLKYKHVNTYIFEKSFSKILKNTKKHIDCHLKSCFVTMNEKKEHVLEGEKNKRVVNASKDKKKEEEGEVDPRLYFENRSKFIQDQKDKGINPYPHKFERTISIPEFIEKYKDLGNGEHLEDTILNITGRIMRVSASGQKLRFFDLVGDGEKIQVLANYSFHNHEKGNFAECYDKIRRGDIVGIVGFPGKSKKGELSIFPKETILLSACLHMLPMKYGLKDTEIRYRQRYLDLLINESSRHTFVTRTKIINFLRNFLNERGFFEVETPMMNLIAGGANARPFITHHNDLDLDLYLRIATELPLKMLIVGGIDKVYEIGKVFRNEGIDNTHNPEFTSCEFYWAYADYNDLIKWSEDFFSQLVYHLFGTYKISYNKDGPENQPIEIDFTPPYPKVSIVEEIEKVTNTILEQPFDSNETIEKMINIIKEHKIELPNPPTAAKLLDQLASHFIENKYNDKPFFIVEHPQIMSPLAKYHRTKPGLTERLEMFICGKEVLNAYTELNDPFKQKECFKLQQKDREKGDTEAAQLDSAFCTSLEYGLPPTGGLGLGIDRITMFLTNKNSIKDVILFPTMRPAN

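Enzyme assay of the cytosolic lysyl-tRNA synthetase in 384-well plates, read by luminescence. Target: Lysine-tRNA ligase, Plasmodium falciparum 3D7 (UniProt Q8IDJ8). Tested at 30 µM. Direction is inferred from only a few compounds that gave an IC50; most scored high, so higher reads as stronger inhibition. About 69,000 compounds were tested under these conditions; 0.071% (about 49) showed 50% or more at least once.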

Each number is a percent effect as filed. The record does not define 0% and 100%; most values in the screen are far below 50% and negative numbers occur (in some assays of this library far below -100). The compounds are a random part of those screened.

Compound	Percent Effect
CCN(CCNC(=O)c1cccnc1OCCOC)C1CC1	1.061%
CCOCC1CN(C(=O)c2ccco2)Cc2nn(C)cc21 (centres undefined)	4.068%
Nc1nnnn1NCc1ccccc1C(F)(F)F	3.901%
Cn1cc(NC(=O)C2CC(=O)N(c3n[nH]c4cccc(F)c34)C2)cn1 (centres undefined)	1.964%
C[C@H]1CCCCN1CCCNc1nccc(-c2c[nH][nH]c2=O)n1	4.999%
COc1cccc2c1OCC(C(=O)NCc1c(C)noc1C)C2 (centres undefined)	-1.035%
Cc1ccc(OCCN2CCC(c3nc(C)n4c(C)csc34)CC2)cc1	0.5944%
CCc1cn[nH]c1C1CCN(c2cc(C)c3cc(OC)ccc3n2)CC1	3.111%
CCN1CCN(Cc2c(-c3ccco3)[nH]c3ncccc23)CC1	1.742%
COCCN(Cc1ccccc1C)c1nc(C)nc2oc(C)nc12	-2.337%
CC(C)c1noc(CN(Cc2ccccc2F)C2CC2)n1	1.466%
COC(=O)CCNC(=O)c1cnc(Cc2ccc(F)cc2)s1	9.035%
NC(=O)CN1CCC2(CC1)C[C@@H](O)[C@H](c1ccccc1)NC2=O	0.7749%
COc1cccc(CC(C)NC(=O)c2ccc(CNC(C)=O)cc2)c1 (centres undefined)	0.3563%
CC(CCc1ccccc1)NC(=O)CN1CCOCC1 (centres undefined)	4.055%
CC(C)CN1CCN(C(=O)c2cccnc2-n2cncn2)CC1	0.2216%
O=C(c1csc(-c2ccco2)n1)N1CCOc2ncccc21	4.445%
CCCc1cc(C(=O)NCCCC(=O)N2Cc3ccccc3C2)[nH]n1	6.994%
C[C@@H]1CN(C(=O)CCN2CCCC2)CC[C@@]1(O)C1CCOCC1	2.042%
O=C(NCC1CC1)Nc1cccc(N2CCN(CC3CC3)CC2)c1	2.234%
Cc1nccn1CCCn1cncc1-c1ccc2c(c1)CCC(C)N2C (centres undefined)	-0.1554%
Cc1cc(CN2CCN(c3ccnc(-c4ccccc4)n3)CC2)no1	0.183%
O=C(c1ccoc1)N1CCCn2nnc(COCC3CC3)c2C1	-3.74%
COc1ccc(OC)c(Sc2ncccc2C(=O)NCCSC)c1	4.06%
COc1ccc(CCNC(=O)Cn2ncc3c2c(C)nn3C)cc1	4.294%
CN(C)C(=O)CO[C@H]1CN(Cc2ccc3c(c2)OCO3)[C@@H]2COC[C@H]12	3.203%
Nc1nccc(N[C@H]2CN(CC(=O)NC3CCCCC3)C[C@@H]2C2CC2)n1	3.562%
Cc1cc(C)c2cc(CNCc3ccccc3)c3nn(C)c(=O)n3c2c1	8.061%
CCOc1ccc(Cl)c(C(=O)N2CCCSCC2)n1	-0.2627%
CC(=O)c1sc(C(NC(=O)c2ccccc2)C2CC2)nc1C (centres undefined)	2.333%
CC(=O)Nc1nc(CNc2ccccc2CCC(F)(F)F)cs1	3.183%
CC(C)Cc1nc(CS(=O)(=O)c2ccccc2)no1	0.7912%
Cc1ccc(F)cc1S(=O)(=O)NCc1cccnc1N(C)C	2.358%
CC(C)CNC(=O)CC1(Cn2cnnn2)CCCCC1	5.584%
Clc1cccnc1OC1CCNCC1	-2.012%
Cn1cnnc1C1CCN(C(=O)CCOc2ccc(Cl)cc2)CC1	-2.278%
O=S(=O)(Cc1ccc(Br)cc1)NCCO	2.538%
Cc1ccc(C(C(=O)NC(C)(C)CN2CCCC2)N(C)C)cc1 (centres undefined)	-2.274%
Cc1ccccc1CNCC(O)c1ccc(OC(C)C)cc1 (centres undefined)	7.207%
Fc1ccc(-c2cnc(C3CCNCC3)cn2)cc1	0.7968%
Cc1cc2c(=O)n(CC(=O)N3CCn4cccc4C3C(C)C)cnc2s1 (centres undefined)	1.882%
CCOCCN1Cc2ncn(C)c2C(COCC2CCOCC2)C1 (centres undefined)	-1.347%
COCCN1CC[C@@H]2O[C@@H](COCC(=O)N3CCCC3)CC[C@@H]21	-0.0343%
Cc1nc[nH]c1CN1CCCC12CCN(c1ccccn1)CC2	-0.07246%
CC(=O)N1CCC2(C1)CN(S(=O)(=O)c1ccccc1)C2	3.84%
CC(C)Oc1ncccc1CNC(=O)c1ccccn1	2.054%
CC(C)CN1C(=O)CC[C@]12CC[C@@H](NC(=O)NCc1cccnc1)CC2	3.47%
CCCC1CN(CCOc2ccccc2)C(=O)c2cccnc2O1 (centres undefined)	7.562%
Cc1csc(N2CCCN(C(=O)c3cccs3)CC2)n1	-3.239%
Cc1cc(N2CCN(C(=O)Cc3c(C)nc(C)[nH]c3=O)CC2)cc(C)n1	0.7701%
COC[C@H](C)Nc1cc(C)c2ccc(SC)cc2n1	-2.189%
CCc1ccc(C(=O)N2CC(C(=O)NC(C)C)C3(CCOCC3)C2)cc1 (centres undefined)	-0.4238%
NC(=O)C1CCCN1Cc1nccn1CC(F)(F)F (centres undefined)	1.594%
Cc1noc(C)c1CN(Cc1cccnc1)C1CN2CCC1CC2 (centres undefined)	-3.388%
CCOc1ccc(CNCCCn2ccnc2)cc1Cl	1.041%
CC(C)c1nnc2n1CCN(C(=O)c1ccc(N(C)C)nn1)C2	-0.1265%
Cn1ccnc1CN1CCOC[C@H]1c1nc(C(C)(C)C)co1	5.598%
Cc1cc(C)c(CNC(=O)NCc2ccc(F)c(C)c2)c(=O)[nH]1	0.8041%
CCc1ncc(C(=O)N2CCCN(C3CCCCC3)CC2)cn1	4.669%
CCCN(CC(=O)NC)C(=O)c1ccc(-c2ccsc2)nc1C	5.758%
Cc1cnnn1Cc1nnn2c1CN(Cc1ccccn1)CCC2	0.8183%
COc1ncccc1C1CC(=O)Nc2cc(NS(C)(=O)=O)ccc21 (centres undefined)	4.251%